Results taken from patent publication US20250082635A1 (Janssen Pharmaceutica NV, priority 2023, published 2025).
Read-outs that look alike come from different tables or passages of the source.

What was measured:
[1] = test system: plasma protein; experiment: clinical; details: Day 1, 2 h
Experimental: (§1) Participants entered the study site on the morning of Day 1 and remained there until after collection of the 96 hours PK sample on Day 5. […] In addition, blood samples for determination of the plasma protein binding (PPB) were collected.
(§2) For all cohorts, 2-hours fraction unbound values were used to derive the unbound plasma concentrations and these unbound concentrations were used to derive unbound PK parameters.

[2] = clinical; details: both, human, plasma, % fu, fraction unbound (mean (SD)), Day 1, 2 h
Experimental: as §1, §2

[3] = for mean AUClast compared to normal hepatic function / mean AUC∞ compared to normal hepatic function / mean Cmax compared to normal hepatic function / mean AUClast,unbound compared to normal hepatic function / mean AUC∞,unbound compared to normal hepatic function / mean Cmax,unbound compared to normal hepatic function: arithmetic means; for mean AUClast compared to normal hepatic function / mean AUC∞ compared to normal hepatic function / mean Cmax compared to normal hepatic function / AUClast compared to normal hepatic function, based on GMR / AUC∞ compared to normal hepatic function, based on GMR / Cmax compared to normal hepatic function, based on GMR: total
[4] = clinical; details: both, human, in vivo; for AUC(0-inf): geometric mean; for Vd/F: po
[5] = dose normalized moderate hepatic impairment vs normal
[6] = mild hepatic impairment vs normal
[7] = subjects having mild hepatic impairment

Structure (SMILES): Cc1cc(C)nc(N2CC3CN(C(=O)c4c(F)cccc4-n4nccn4)CC3C2)n1 (stereo not drawn) [seltorexant, [5-(4,6-dimethyl-pyrimidin-2-yl)-hexahydro-pyrrolo[3,4-c]pyrrol-2-yl]-(2-fluoro-6-[1,2,3]triazol-2-yl-phenyl)-methanone]
- % fb (mean (SD)) ([1]; Cohort 1 normal hepatic function): 98.5 (0.564) %
- % fb (mean (SD)) ([1]; Cohort 2 mild hepatic impairment): 98.0 (1.37) %
- % fb (mean (SD)) ([1]; Cohort 3 moderate hepatic impairment): 96.6 (1.22) %
- fraction unbound at 2 h ([2]; 10 mg, Cohort 3 moderate hepatic impairment): 0.0339
- fraction unbound at 2 h ([2]; 20 mg, Cohort 1 normal hepatic function): 0.015
- fraction unbound at 2 h ([2]; 20 mg, Cohort 2 mild hepatic impairment): 0.0202
- mean AUClast compared to normal hepatic function [3, 5]: comparable
- mean AUC∞ compared to normal hepatic function [3, 5]: comparable
- mean Cmax compared to normal hepatic function [3, 5]: comparable
- mean AUClast,unbound compared to normal hepatic function [3, 5]: 2.77 fold
- mean AUC∞,unbound compared to normal hepatic function [3, 5]: 2.79 fold
- mean Cmax,unbound compared to normal hepatic function [3, 5]: 2.81 fold
- AUClast compared to normal hepatic function, based on GMR [3, 5]: ~1.15 fold
- AUC∞ compared to normal hepatic function, based on GMR [3, 5]: ~1.16 fold
- Cmax compared to normal hepatic function, based on GMR [3, 5]: ~1.07 fold
- AUClast,unbound compared to normal hepatic function, based on GMR [3, 5]: ~2.65 fold
- AUC∞,unbound compared to normal hepatic function, based on GMR [3, 5]: ~2.67 fold
- Cmax,unbound compared to normal hepatic function, based on GMR [3, 5]: ~2.48 fold
- mean AUClast compared to normal hepatic function [3, 6]: 1.37 fold
- mean AUC∞ compared to normal hepatic function [3, 6]: 1.38 fold
- mean Cmax compared to normal hepatic function [3, 6]: comparable
- mean AUClast,unbound compared to normal hepatic function [3, 6]: 1.77 fold
- mean AUC∞,unbound compared to normal hepatic function [3, 6]: 1.77 fold
- mean Cmax,unbound compared to normal hepatic function [3, 6]: 1.45 fold
- AUClast compared to normal hepatic function, based on GMR [3, 6]: ~1.40 fold
- AUC∞ compared to normal hepatic function, based on GMR [3, 6]: ~1.40 fold
- Cmax compared to normal hepatic function, based on GMR [3, 6]: ~1.07 fold
- AUClast,unbound compared to normal hepatic function, based on GMR [3, 6]: ~1.68 fold
- AUC∞,unbound compared to normal hepatic function, based on GMR [3, 6]: ~1.69 fold
- Cmax,unbound compared to normal hepatic function, based on GMR [3, 6]: ~1.28 fold
- total AUC increase compared to normal hepatic function [3, 7]: 1.40 fold
- unbound AUC increase compared to normal hepatic function [3, 7]: 1.68 fold
- AUC(0-inf) ([4]; 10 mg, Cohort 3 (Test) moderate hepatic impairment, 10 mg dose normalized to 20 mg, unbound): 88.5 ng·h/mL
- AUC(0-inf) ([4]; 20 mg, Cohort 1 (Reference) normal hepatic function, total): 2380 ng·h/mL
- AUC(0-inf) ([4]; 20 mg, Cohort 1 (Reference) normal hepatic function, unbound): 33.2 ng·h/mL
- AUC(0-inf) ([4]; 20 mg, Cohort 2 (Test) mild hepatic impairment, total): 3340 ng·h/mL
- AUC(0-inf) ([4]; 20 mg, Cohort 2 (Test) mild hepatic impairment, unbound): 56 ng·h/mL
- Vd/F ([4]; 10 mg): 43.1 L
- Vd/F ([4]; 20 mg): 35.5 L
